PubChem BioAssay AID1259425 – University of Nebraska Medical Center, 2018

Test: 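Seek colon cancer weak points whose silencing resembles KSR1 loss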 (primary screen)
Cell system: HCT116 human colon cancer cells
Reagents: siRNA pool against human genes, 50 nM siRNA
Read-out: 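mRNA of six signature genes measured together by branched-DNA assay after 50 nM siRNA pool, blank removed, divided by geometric mean of two housekeeping genes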
Direction: BNIP3L mRNA: higher = more BNIP3L transcript after knockdown; NDRG1 mRNA: higher = more NDRG1 transcript after knockdown; BNIP3 mRNA: higher = more BNIP3 transcript after knockdown; ALDOC mRNA: higher = more ALDOC transcript after knockdown
Here is an unselected part of about 14,000 reagents tested. Not all columns of the deposit are shown. Not stated in the record: the time to read-out.

| Gene | BNIP3L mRNA, set 1 | NDRG1 mRNA, set 1 | BNIP3 mRNA, set 1 | ALDOC mRNA, set 1 |
| --- | --- | --- | --- | --- |
| MAGEB3 | 0.08 | 0.104 | 0.383 | 0.0157 |
| KLF5 | 0.109 | 0.0708 | 0.426 | 0.00718 |
| CEBPG | 0.0906 | 0.141 | 0.512 | 0.0112 |
| ALPP | 0.14 | 0.479 | 0.246 | 0.0175 |
| SIM1 | 0.102 | 0.11 | 0.337 | 0.0278 |
| PDE4B | 0.0668 | 0.0669 | 0.235 | 0.0187 |
| JKAMP | 0.124 | 0.273 | 0.376 | 0.026 |
| TRIM32 | 0.162 | 0.165 | 0.376 | 0.0332 |
| GPRASP1 | 0.136 | 0.147 | 0.321 | 0.027 |
| RIOK3 | 0.272 | 0.0846 | 0.536 | 0.00725 |
| ACADSB | 0.0757 | 0.0899 | 0.265 | 0.0144 |
| CBX2 | 0.104 | 0.476 | 0.223 | 0.0335 |
| ACAA1 | 0.252 | 0.571 | 0.402 | 0.045 |
| MYO1C | 0.0659 | 0.126 | 0.272 | 0.0306 |
| HADHA | 0.0687 | 0.185 | 0.237 | 0.00898 |
| ANGPTL4 | 0.0559 | 0.0925 | 0.2 | 0.0114 |
| MCRIP2 | 0.17 | 0.159 | 0.273 | 0.107 |
| DEDD | 0.152 | 0.0826 | 0.26 | 0.0121 |
| IFI27 | 0.122 | 0.0996 | 0.391 | 0.0379 |
| P2RY4 | 0.212 | 0.518 | 0.318 | 0.0288 |
| COLEC11 | 0.0683 | 0.172 | 0.215 | 0.0273 |
| IL18 | 0.102 | 0.119 | 0.243 | 0.037 |
| DCUN1D2 | 0.0558 | 0.322 | 0.289 | 0.0282 |
| UBN1 | 0.136 | 0.173 | 0.272 | 0.0297 |
| RAB17 | 0.0699 | 0.342 | 0.29 | 0.0607 |
| PKIB | 0.289 | 0.141 | 0.809 | 0.0591 |
| KCNK3 | 0.13 | 0.988 | 0.327 | 0.00944 |
| CBR3 | 0.0568 | 0.0806 | 0.275 | 0.0114 |
| MVD | 0.0572 | 0.18 | 0.24 | 0.00587 |
| NIM1K | 0.0857 | 0.0593 | 0.264 | 0.0054 |
| LRRC32 | 0.179 | 0.153 | 0.352 | 0.0574 |
| MAGEA11 | 0.124 | 0.101 | 0.193 | 0.00964 |
| SFI1 | 0.173 | 0.52 | 0.503 | 0.0616 |
| IFNA16 | 0.128 | 0.924 | 0.378 | 0.0351 |
| FILIP1L | 0.106 | 0.126 | 0.253 | 0.0248 |
| DTNB | 0.124 | 0.432 | 0.29 | -0.00306 |
| SCAF1 | 0.816 | 0.967 | 1.92 | 0.201 |
| ATOH8 | 0.116 | 0.22 | 0.279 | 0.048 |
| ARHGEF6 | 0.0768 | 0.14 | 0.268 | 0.0236 |
| MNT | 0.0542 | 0.108 | 0.269 | 0.012 |
| TMEM168 | 0.0845 | 0.316 | 0.201 | 0.0178 |
| NLGN4X | 0.147 | 0.352 | 0.255 | 0.0698 |
| OR1D4 | 0.236 | 0.372 | 0.31 | 0.0743 |
| IFNA2 | 0.0598 | 0.212 | 0.241 | 0.0426 |
| LMTK3 | 0.279 | 0.179 | 0.427 | 0.0164 |
| GUSB | 0.0407 | 0.354 | 0.216 | 0.0113 |
| ST6GALNAC1 | 0.0993 | 0.304 | 0.368 | 0.0194 |
| ZNF35 | 0.11 | 0.0791 | 0.389 | 0.00172 |
| PDGFC | 0.0914 | 0.0775 | 0.279 | 0.0235 |
| HOXB9 | 0.109 | 1.21 | 0.297 | 0.0282 |
